PubChem BioAssay AID1259285 | Sanger Institute, 2017

Assay: 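Search of the kinome for kinases worth combining with drugs in colon cancer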 (primary screen)
Cell system: human HCC56 colorectal cancer cells
Reagents: siRNA pool against human genes
Conditions: DMSO vehicle, or anchor drug BYL719 at 1 µM, cetuximab at 5 µg/ml, or trametinib at 10 nM
Read-out: 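Viability as a ratio to non-targeting pool wells, averaged over replicates and turned into a robust z-score; synergy scores with BYL719, cetuximab or trametinib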
Reading the numbers: viability robust z-score, no drug: higher = more viable cells, weaker knock-down effect; viability vs non-targeting pool, no drug: higher = more viable cells; synergy score with BYL719: higher = stronger combined killing with BYL719; synergy score with cetuximab: higher = stronger combined killing with cetuximab; synergy score with trametinib: higher = stronger combined killing with trametinib
Call rule: 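Essential when the drug-free viability robust z-score falls below -3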
Meaning of the calls: active = essential without drug; inactive = no change without drug
The whole screen tested 794 reagents; below is a random part of them. Over the whole deposit, 20 (2.5%) are marked active. 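Calls rest on the drug-free arm alone and ignore synergy scores; viability ratios seem to be capped at 1.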 The record does not give: the amount of reagent, the time to read-out.

The opening 2 records, to show the layout:
| gene symbol | viability robust z-score, no drug | viability vs non-targeting pool, no drug | synergy score with BYL719 | synergy score with cetuximab | synergy score with trametinib | outcome |
| --- | --- | --- | --- | --- | --- | --- |
| PRKACB (protein kinase cAMP-activated catalytic subunit beta) | -0.341 | 0.931 | 0.0778 | 0.0733 | 0.108 | inactive |
| PIK3CG | -0.325 | 0.933 | 0.0248 | -0.0184 | 0.0282 | inactive |

The listing, repeating the preview:
| gene symbol | viability robust z-score, no drug | viability vs non-targeting pool, no drug | synergy score with BYL719 | synergy score with cetuximab | synergy score with trametinib | outcome |
| --- | --- | --- | --- | --- | --- | --- |
| PRKACB (protein kinase cAMP-activated catalytic subunit beta) | -0.341 | 0.931 | 0.0778 | 0.0733 | 0.108 | inactive |
| PIK3CG | -0.325 | 0.933 | 0.0248 | -0.0184 | 0.0282 | inactive |
| PAPSS1 (3'-phosphoadenosine 5'-phosphosulfate synthase 1) | 0.458 | 1 | -0.162 | -0.142 | -0.106 | inactive |
| FASTK (Fas activated serine/threonine kinase) | 0.458 | 1 | 0.0691 | 0.00249 | 0.074 | inactive |
| SHPK (sedoheptulokinase) | 0.458 | 1 | -0.162 | -0.142 | -0.102 | inactive |
| DYRK1B | -0.913 | 0.882 | -0.232 | -0.167 | -0.0558 | inactive |
| ERBB4 (erb-b2 receptor tyrosine kinase 4) | -0.944 | 0.88 | 0.0122 | -0.0924 | -0.0232 | inactive |
| NEK9 (NIMA related kinase 9) | 0.458 | 1 | -0.013 | -0.0518 | 0.125 | inactive |
| FN1 (fibronectin 1) | 0.458 | 1 | -0.162 | -0.142 | -0.248 | inactive |
| CKMT1B (creatine kinase, mitochondrial 1B) | -1.62 | 0.822 | -0.105 | -0.117 | -0.101 | inactive |
| SPEG (striated muscle enriched protein kinase) | 0.458 | 1 | -0.162 | -0.142 | -0.0525 | inactive |
| MAK (male germ cell associated kinase) | 0.458 | 1 | -0.127 | 0.0388 | 0.0186 | inactive |
| PRKAR2B | -2.2 | 0.771 | -0.0482 | -0.15 | -0.0362 | inactive |
| SOS2 (SOS Ras/Rho guanine nucleotide exchange factor 2) | 0.458 | 1 | -0.0333 | 0.0637 | 0.0292 | inactive |
| CAD | 0.458 | 1 | -0.162 | -0.142 | -0.205 | inactive |
| PIK3R1 (phosphoinositide-3-kinase regulatory subunit 1) | 0.458 | 1 | -0.162 | -0.142 | -0.169 | inactive |
| STK3 (serine/threonine kinase 3) | 0.458 | 1 | -0.0907 | 0.0216 | 0.0275 | inactive |
| GAK (cyclin G associated kinase) | 0.448 | 0.999 | 0.0296 | 0.0248 | 0.101 | inactive |
| OBSCN | 0.458 | 1 | -0.162 | -0.142 | 0.0107 | inactive |
| PRKG2 (protein kinase cGMP-dependent 2) | 0.458 | 1 | -0.133 | -0.0644 | 0.0186 | inactive |
